Laboratory results taken from PMC3046960.
No constants are given. Whether binding was seen depends on the method and setting. Binding seen in cells or lysates may run through a third protein. Some binding calls cover weakened binding; strength is not graded here.

Amino acid sequences for entries named in this document (tags omitted). A change or cut given only in a name is not applied to a line headed by its entry.
UniProt D4A5I9: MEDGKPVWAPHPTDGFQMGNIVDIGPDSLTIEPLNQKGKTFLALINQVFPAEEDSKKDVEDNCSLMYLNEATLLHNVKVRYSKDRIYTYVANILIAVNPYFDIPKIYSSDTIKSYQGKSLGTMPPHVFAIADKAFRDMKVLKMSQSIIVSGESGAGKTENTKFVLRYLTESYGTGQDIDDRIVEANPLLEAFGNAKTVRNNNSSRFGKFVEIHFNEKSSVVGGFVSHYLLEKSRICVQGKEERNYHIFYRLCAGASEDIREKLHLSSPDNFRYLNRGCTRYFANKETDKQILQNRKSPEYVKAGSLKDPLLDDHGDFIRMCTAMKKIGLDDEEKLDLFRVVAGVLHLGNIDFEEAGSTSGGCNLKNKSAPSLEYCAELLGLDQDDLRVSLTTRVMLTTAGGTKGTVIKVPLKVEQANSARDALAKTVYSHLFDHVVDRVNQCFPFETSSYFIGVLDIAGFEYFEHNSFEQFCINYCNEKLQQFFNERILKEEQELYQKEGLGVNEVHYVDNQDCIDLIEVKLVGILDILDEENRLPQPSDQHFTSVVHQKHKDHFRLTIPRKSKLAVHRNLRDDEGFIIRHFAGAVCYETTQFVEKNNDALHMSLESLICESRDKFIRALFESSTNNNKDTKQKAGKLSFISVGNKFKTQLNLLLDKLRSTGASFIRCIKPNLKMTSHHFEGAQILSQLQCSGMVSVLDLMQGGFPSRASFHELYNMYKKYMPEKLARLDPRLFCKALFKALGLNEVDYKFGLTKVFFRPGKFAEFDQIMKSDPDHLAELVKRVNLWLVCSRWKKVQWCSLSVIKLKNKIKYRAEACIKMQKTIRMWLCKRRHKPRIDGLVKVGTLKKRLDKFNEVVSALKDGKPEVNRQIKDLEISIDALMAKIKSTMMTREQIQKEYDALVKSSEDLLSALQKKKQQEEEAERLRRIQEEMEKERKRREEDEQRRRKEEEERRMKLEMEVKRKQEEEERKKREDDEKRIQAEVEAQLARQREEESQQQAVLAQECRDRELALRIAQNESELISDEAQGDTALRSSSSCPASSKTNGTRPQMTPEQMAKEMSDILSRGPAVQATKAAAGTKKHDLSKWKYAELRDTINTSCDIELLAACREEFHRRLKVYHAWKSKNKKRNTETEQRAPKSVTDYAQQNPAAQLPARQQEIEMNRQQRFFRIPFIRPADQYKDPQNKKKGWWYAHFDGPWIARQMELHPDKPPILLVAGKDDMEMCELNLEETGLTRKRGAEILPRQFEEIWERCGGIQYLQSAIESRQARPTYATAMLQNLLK
UniProt Q96CV9: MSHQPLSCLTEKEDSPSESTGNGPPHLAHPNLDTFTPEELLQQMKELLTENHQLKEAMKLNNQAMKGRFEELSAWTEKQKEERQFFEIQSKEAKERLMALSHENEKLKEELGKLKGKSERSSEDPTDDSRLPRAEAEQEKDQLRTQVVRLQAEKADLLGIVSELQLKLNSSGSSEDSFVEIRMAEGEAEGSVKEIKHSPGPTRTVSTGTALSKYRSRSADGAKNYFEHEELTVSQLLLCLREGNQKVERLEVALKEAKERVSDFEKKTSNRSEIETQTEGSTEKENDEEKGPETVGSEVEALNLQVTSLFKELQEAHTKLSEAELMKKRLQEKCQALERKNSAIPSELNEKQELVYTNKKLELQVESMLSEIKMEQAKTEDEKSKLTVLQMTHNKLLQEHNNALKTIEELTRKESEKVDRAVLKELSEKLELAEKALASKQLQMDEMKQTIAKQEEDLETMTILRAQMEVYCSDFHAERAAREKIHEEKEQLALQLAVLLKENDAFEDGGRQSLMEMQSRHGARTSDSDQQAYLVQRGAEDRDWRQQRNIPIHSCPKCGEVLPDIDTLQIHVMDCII

Biological target: HA-Myosin VI (rat) (UniProt D4A5I9)
Experiment: co-IP; COS cells co-transfected with Myosin VI HA and GFP-MVIBD or GFP alone; lysate in 150 mM NaCl, 1 mM EDTA, 10 mM Tris pH 8.0, 1% NP40; goat anti-HA beads overnight at 4°C; washes with 0.1% NP40; blots with anti-HA and anti-GFP

binding: binds
Substance: GFP-MVIBD (GFP fused to the Myosin VI binding domain: Optineurin 420-526 and DAB2 649-719 in tandem) (from UniProt Q96CV9 420-526; P98082 649-719)
